Values of other authors, collected in patent US20220184020A1, “Polyphenols as Modulators of Platelet Function” (Northeastern University, priority 2019, published 2022).
At least one structure is not confirmed: it was looked up by name or label, or the drawing left a doubt.

Conditions: modulates inflammatory responses; cited from earlier work

CC(C)=CC[C@@H](O)C1=CC(=O)c2c(O)ccc(O)c2C1=O [shikonin]
protection against brain ischemic damage: protecting against brain ischemic damage
